PubChem BioAssay AID1224830 – NIAID | 2016

- Purpose: 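Genes whose knock-down alters the TNF-alpha reporter response to LPS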 (primary screen)
- System: human THP-1 monocytic leukaemia cells, TNF dual-luciferase reporter clone, PMA-differentiated to macrophage-like cells
- Reagent: siRNA pool against human genes, 50 nM
- Time to read-out: LPS for 4 h, given about 3 days after siRNA transfection
- Conditions: bacterial LPS (TLR4 ligand), 10 ng/ml
- Measured: 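TNF firefly reporter luminescence divided by renilla, normalised to the plate median, then turned into a robust z-score for each replicate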
- Direction: TNF reporter robust z-score: higher = stronger TNF reporter response to LPS
- Rule for the call: 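a well is active when its z-score exceeds 2.8 or falls below -1.5; control wells carry no call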
The deposit covers about 18,000 reagents; shown is an unselected part. Over the whole deposit, about 2,900 (16%) were called active. 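Calls are made per well; low scores hint the gene aids the LPS response, high scores that it dampens it.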 Entries without a mark were called inactive. Repeated entries: four replicate wells of each siRNA pool.

With knock-down of TOLLIP, the record shows TNF reporter robust z-score -1.13.
Against TOLLIP the deposit lists TNF reporter robust z-score -0.72.
TOLLIP showed TNF reporter robust z-score 0.61.
Depletion of TOLLIP gave: TNF reporter robust z-score -1.41.
Depletion of MS4A7 came out at: TNF reporter robust z-score -0.01.
For MS4A7 the deposit lists TNF reporter robust z-score 0.3.
With knock-down of MS4A7 the results were TNF reporter robust z-score 0.93.
After knock-down of MS4A7 the results were TNF reporter robust z-score 0.89.
Against TMEM9B, the values are TNF reporter robust z-score -0.64.
After knock-down of TMEM9B, the record shows TNF reporter robust z-score -0.56.
Against TMEM9B the deposit lists TNF reporter robust z-score -1.06.
TMEM9B gave TNF reporter robust z-score 0.33.
Silencing of SLC22A17 resulted in: TNF reporter robust z-score -0.94.
Against SLC22A17, the entry reads TNF reporter robust z-score -0.56.
Silencing of SLC22A17 gave: TNF reporter robust z-score -0.72.
After knock-down of SLC22A17, the screen gave TNF reporter robust z-score -0.91.
Knock-down of ADRB1 gave: TNF reporter robust z-score 2.06.
Depletion of ADRB1 resulted in: TNF reporter robust z-score 2.77.
Against ADRB1 the deposit lists TNF reporter robust z-score 1.85.
For ADRB1, the values are TNF reporter robust z-score 1.5.
After knock-down of RSBN1L, the screen gave TNF reporter robust z-score -0.75.
Knock-down of RSBN1L came out at: TNF reporter robust z-score -0.05.
RSBN1L gave TNF reporter robust z-score -0.08.
Against RSBN1L the deposit lists TNF reporter robust z-score -0.4.
PSMA2 gave TNF reporter robust z-score -1.52 (active).
PSMA2 gave TNF reporter robust z-score -1.33.
Depletion of PSMA2 came out at: TNF reporter robust z-score -1.34.
For PSMA2, the values are TNF reporter robust z-score -0.2.
For GALNT16, the values are TNF reporter robust z-score 0.12.
Knock-down of GALNT16 resulted in: TNF reporter robust z-score -0.54.
After knock-down of GALNT16, the screen gave TNF reporter robust z-score -1.04.
With knock-down of GALNT16 the results were TNF reporter robust z-score -0.07.
KCNJ4 showed TNF reporter robust z-score -0.03.
Knock-down of KCNJ4 gave: TNF reporter robust z-score -0.37.
Depletion of KCNJ4 gave: TNF reporter robust z-score -0.31.
With knock-down of KCNJ4, the screen gave TNF reporter robust z-score 1.11.
Against TMEM219, the entry reads TNF reporter robust z-score -0.78.
TMEM219 showed TNF reporter robust z-score -0.16.
TMEM219 scored TNF reporter robust z-score -0.9.
Depletion of TMEM219 resulted in: TNF reporter robust z-score -0.34.
With knock-down of PRODH2, the record shows TNF reporter robust z-score -0.2.
Against PRODH2, the values are TNF reporter robust z-score 1.35.
PRODH2 scored TNF reporter robust z-score 0.37.
For PRODH2, the entry reads TNF reporter robust z-score 0.
For KLF10 the deposit lists TNF reporter robust z-score -0.11.
Against KLF10 the deposit lists TNF reporter robust z-score 0.54.
After knock-down of KLF10, the record shows TNF reporter robust z-score -0.03.
Depletion of KLF10 resulted in: TNF reporter robust z-score -1.13.

Reformatted: entries from further up.
{"target": "KCNJ4", "TNF reporter robust z-score": -0.31}
{"target": "KCNJ4", "TNF reporter robust z-score": 1.11}
{"target": "TMEM219", "TNF reporter robust z-score": -0.78}
{"target": "TMEM219", "TNF reporter robust z-score": -0.16}
{"target": "TMEM219", "TNF reporter robust z-score": -0.9}
{"target": "TMEM219", "TNF reporter robust z-score": -0.34}
{"target": "PRODH2", "TNF reporter robust z-score": -0.2}
{"target": "PRODH2", "TNF reporter robust z-score": 1.35}
